Assay results taken from patent publication US20120251444A1.
These are yes or no findings as the source states them, for the method shown. Some binding calls cover weakened binding; strength is not graded here.

Amino acid sequences for entries named in this document (tags omitted). A change or cut given only in a name is not applied to a line headed by its entry. Residues count along the entry.
UniProt P98164, residues 1025-1102: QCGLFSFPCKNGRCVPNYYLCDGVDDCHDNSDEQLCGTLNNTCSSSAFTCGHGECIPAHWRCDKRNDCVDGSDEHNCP
UniProt Q07954, residues 852-973: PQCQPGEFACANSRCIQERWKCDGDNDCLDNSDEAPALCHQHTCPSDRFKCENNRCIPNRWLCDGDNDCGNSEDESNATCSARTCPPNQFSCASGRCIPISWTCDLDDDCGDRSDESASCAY
UniProt P30533: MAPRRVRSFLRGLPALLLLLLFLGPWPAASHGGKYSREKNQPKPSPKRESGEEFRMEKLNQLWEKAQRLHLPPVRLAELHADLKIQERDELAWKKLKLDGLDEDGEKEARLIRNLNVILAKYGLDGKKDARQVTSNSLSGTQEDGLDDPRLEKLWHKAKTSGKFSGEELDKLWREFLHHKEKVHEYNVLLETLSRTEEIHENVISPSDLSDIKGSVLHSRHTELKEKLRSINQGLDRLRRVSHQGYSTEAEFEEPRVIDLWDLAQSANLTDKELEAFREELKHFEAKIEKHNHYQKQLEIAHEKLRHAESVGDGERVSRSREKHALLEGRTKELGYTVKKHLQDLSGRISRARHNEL

Tests used:
[1] = biological target: LRP2 CR89 (UniProt P98164); assay: binding titration on LRP2 CR89, absorbance against nM of ligand, fitted with a single binding site
[2] = biological target: LRP1 CR3-5 (UniProt Q07954); assay: binding titration on LRP1 CR3-5, absorbance against nM of ligand, fitted with a single binding site
[3] = biological target: LRP2 CR89 (UniProt P98164); assay: binding titration on LRP2 CR89, absorbance against nM of ligand

“MegaRAP1 d3 Y249H (from UniProt P30533 234-357) (ligand)” was tested, and the binding [1] was “binds”.

With “RAP d3 (from UniProt P30533 234-357) (ligand)” the binding [2] was “binds”.

With “RAP d3 E217K (from UniProt P30533 234-357) (ligand)” the binding [2] was “binds”.

For “RAP d3 E251K (from UniProt P30533 234-357) (ligand)”, the binding [2] was “binds”.

For “RAP d3 E251K, K256A, K270E (from UniProt P30533 234-357) (ligand)”, the binding [1] was “binds”.

“RAP d3 E251K, K270E (from UniProt P30533 234-357) (ligand)” was tested, and the binding [3] was “no binding (tested: 100 nM)”.

With “RAP d3 H249Y (from UniProt P30533 234-357) (ligand)” the binding [2] was “binds”.
